According to patent US6447748B1, “Benzamide compounds for cancer imaging and therapy” (Research Corporation Technologies, Inc., priority 1993, dated 2002):
For at least one compound, name, drawing or mass did not settle the structure.

System: human A2058 melanoma xenografts
Assay: Biodistribution in nude mice xenografted with human melanotic melanoma
Format: in vivo, Balb/c nu/nu mice
Settings: 24 Hour, mean (std. dev.), n = 6
Description: A2058 tumor cells, derived from a brain metastasis of human malignant melanoma (Todaro et al. 1980 Proc. Natl. Acad. Sci. USA 77:5258) were obtained from the National Institutes of Health. […] Suspension of 5×10^6 cells (viability greater than 95%) in 0.2 mL of medium were inoculated subcutaneously in female Balb/c nu/nu mice. After about two weeks, solid tumors of about 1 cm in diameter appeared in approximately 85% of all inoculated mice. […] Balb/c nu/nu mice (17-22 g) were injected intravenously with 0.2 ml of a saline solution containing [^125I]PAB (5-6 μCi). […] The values obtained were normalized to a mouse weighing 20 g. The differences between [^125I]PAB and [^125I]DAB were examined by Student's unpaired t tests.

For `CCN(CC)CCNC(=O)c1ccc([125I])cc1` [[^125I]DAB, ^125I-N-(diethylaminoethyl)4-iodobenzamide, reference compound], the “Biodistribution Thyroid” value was 0.0SS0 (.0207) % ID/g.
